Reference: PubChem BioAssay AID1053208 (Peter MacCallum Cancer Centre, 2014)
Here is a random part of about 17,000 deposited reagents. Of all reagents, 788 (4.7%) are marked active. 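Calls rest on z-score classes alone; an extra cut-off of viability at most 70% of control was not applied to them.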

Screen: 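Find knock-downs that sensitise mouse osteosarcoma cells to doxorubicin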 (primary screen)
Cells: mouse osteosarcoma cells, early-passage culture from an engineered mouse model of fibroblastic bone tumour
Reagents: siRNA pool against mouse genes, 40 nM
Duration: about 120 h (48 h before drug, then 72 h with drug)
Treatment: doxorubicin 100 nM for 72 h, roughly 30-40% inhibitory dose
Measured: 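Viability read as ATP luminescence after 72 h of 100 nM doxorubicin or none, duplicate wells averaged, scaled to non-targeting siRNA, then expressed as robust z-scores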
Reading the numbers: viability z-score with doxorubicin and doxorubicin viability vs non-targeting: higher = more viable cells under doxorubicin; viability z-score without drug: higher = more viable cells with knock-down alone; z-score of drug to no-drug ratio: higher = less drug sensitisation by knock-down
Active means: 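Called active if knock-down leaves viability unchanged without drug (z within -2 to 2) but lowers it with doxorubicin (z at or under -2)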

gene	combined z-score class	viability z-score with doxorubicin	viability z-score without drug	z-score of drug to no-drug ratio	doxorubicin viability vs non-targeting	outcome
Rprm	no change with or without drug	1.12	-0.17	1.46	1.04	inactive
Pkmyt1	no change with or without drug	-0.34	-1.35	0.79	0.91	inactive
Slc25a38	no change with or without drug	-0.34	-1.01	0.45	0.91	inactive
Myh8	no change with or without drug	-1.12	-1.52	0	0.84	inactive
Inpp1	no change with or without drug	0	0.17	0	0.94	inactive
Dppa1	no change with or without drug	0.9	1.18	0.22	1.02	inactive
C1qbp	no change with or without drug	-0.67	-0.17	-0.45	0.88	inactive
Arap3	no change with or without drug	-0.9	0.67	-1.24	0.86	inactive
Cacna1b	no change with or without drug	0.22	-1.52	1.57	0.96	inactive
Lrsam1	low cell count without drug only	-1.8	-2.02	-0.45	0.78	inactive
Klf3	no change with or without drug	0.45	1.18	-0.22	0.98	inactive
Zfp292	no change with or without drug	0.9	0.67	0.56	1.02	inactive
Gsdmd	no change with or without drug	-0.22	0.84	-0.67	0.92	inactive
Slc8b1	no change with or without drug	0.22	-0.17	0.45	0.96	inactive
Gabra4	no change with or without drug	0	-0.17	0.22	0.94	inactive
Bbs2	no change with or without drug	-0.34	-0.17	-0.11	0.91	inactive
Rpl22l1	no change with or without drug	-1.24	-1.35	-0.34	0.83	inactive
Aatf	no change with or without drug	-1.24	-0.17	-1.12	0.83	inactive
Pdgfc	no change with or without drug	-0.67	-0.51	-0.22	0.88	inactive
Dpf3	high cell count with doxorubicin only	2.47	-0.17	2.81	1.16	inactive
Sp4	no change with or without drug	0	1.35	-0.79	0.94	inactive
Acot9	no change with or without drug	-1.12	-0.84	-0.56	0.84	inactive
Zbtb7b	no change with or without drug	0.9	1.18	0.22	1.02	inactive
Duoxa2	no change with or without drug	0.22	0.17	0.22	0.96	inactive
Dennd2a	no change with or without drug	0.67	-0.51	1.24	1	inactive
Gpd2	no change with or without drug	1.35	0.51	1.12	1.06	inactive
Azgp1	no change with or without drug	-1.35	0.51	-1.57	0.82	inactive
Mtbp	no change with or without drug	1.91	0.51	1.69	1.11	inactive
Nup210	no change with or without drug	-1.24	-0.17	-1.12	0.83	inactive
Sod1	no change with or without drug	-1.01	-0.84	-0.45	0.85	inactive
Tas2r121	no change with or without drug	-0.45	0.51	-0.67	0.9	inactive
Kcnc3	no change with or without drug	0.34	0.51	0.11	0.97	inactive
9830132L24	no change with or without drug	-0.45	-0.84	0.22	0.9	inactive
Echdc1	no change with or without drug	0.56	1.85	-0.56	0.99	inactive

Look-ups from the entries so far.
For “z-score of drug to no-drug ratio”, Aatf shows -1.12
Result for Slc8b1 in “doxorubicin viability vs non-targeting”: 0.96
Inpp1, viability z-score without drug: 0.17
Entry for Rpl22l1 under “outcome”: inactive
Under “viability z-score without drug”, Dppa1 shows 1.18
For “z-score of drug to no-drug ratio”, Dpf3 is entered as 2.81
